PMC9464412

T1: Flag-tagged QKI (Quaking) (UniProt Q9QYS9)
T1 sequence: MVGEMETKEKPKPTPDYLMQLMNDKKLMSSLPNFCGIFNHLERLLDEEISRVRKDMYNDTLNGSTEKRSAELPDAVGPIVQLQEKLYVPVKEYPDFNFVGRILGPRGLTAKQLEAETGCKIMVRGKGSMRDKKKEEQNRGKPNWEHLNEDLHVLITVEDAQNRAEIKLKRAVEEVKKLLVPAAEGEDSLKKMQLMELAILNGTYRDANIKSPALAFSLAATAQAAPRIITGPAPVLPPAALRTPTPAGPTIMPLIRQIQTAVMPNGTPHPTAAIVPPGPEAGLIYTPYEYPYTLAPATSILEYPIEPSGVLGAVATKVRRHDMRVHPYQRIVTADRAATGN

B1: Ring finger protein 6 (RNF6), endogenous (enzyme, UniProt Q9DBU5 1-667)
chain: MDPSRSRSGGSGEESSFQENERRWQQERLHREEAYYQFINELSDEDYRLMRDHNLLGTPGEITSEELQQRLERAKEQLASQPGSDSAASDGDSESLRAHSDEDSLLRWLNTFRRTGNVTRSGQNGNQSWRAVSRTNPNSGEFGFSLEIHINPDNRGSEMHGEDSTDIPLSGVNREHRQQRPSSPVARRTRSQTSMSSSGPRGRRGARRQGSVQGSFATLGRLRNGIGVALGVPRVSAPRTNVINSHTNQSDGSTLRQGGRQRFGAAHIWENGARSNVTVRNTNQRLEPIRLRPAFSSRSRSPIQRQNGTVHHNSQRQGRPVQQTGRNRSVRHRGVTRVFLEQGREHRGTDYTPLSNSRLVSRITVEEGESSRSSAATQRHPAITLDLQVRRIRPGETRDRDSIANRTRSRAGLAESTVESTSGGFHRTISHLERSGVRTYVSTITVPLRRISENDVVEPSSVALRSILRQIMTGFGELSSLMEVEPASENQSNGQRLPEVYLELSNGDAADDSGQHGRASSQASQAQDGAEMLAVREPAPPQARPSGSRSRRQLGRADSVVEAGTLPILRLAHFFLLNEGDDDPIRGLTKEQIDNLSTRSYEQDGVDSELGKVCSVCISDYVAGNKLRQLPCLHEFHIHCIDRWLSENCTCPVCRRPVLEFGATSSG
B2: EDC3, endogenous (protein, UniProt Q8K2D3 1-508)
chain: MAMDWLGSIVSINCGDSLGVYQGRVSAVDQVSQTISLTRPFHNGVKCLVPEVTFRAGDITELKILEIPGPGDNQQVGDLHQTELGPSGVGYQMSISQNGTGKVVKKPASSSSAPQSIPKRTDVKSQDVAISPQQQQCSKSYVDRHMESLSQSKSFRRRHNSWSSSSRHPNQATPKKSGLKNGQMKNKDDECFGDDIEELPDTDFDFEGNLALFDKAAVFEEIDTYERRSGSRSRGVPNERPARYRHDENILESEPIVYRRITVPHSVSKEFCTDSGLVVPSVSYELHKKLLSVAEKHGLTLERRLEMTGVCASQMALTLLGGPNRLNPKNVHQRPTVALLCGPHVKGAQGISCGRHLANHDVQVILFLPNFVKMLESITNELSLFSKTQGQQVSSLRDLPASPVDLVINCLDCPENAFLRDQPWYKAAVAWANQNRAPVLSIDPPVHEVEQGIDAKWSLALGLPLPLGEHAGRVYLCDIGIPQQVFQEVGINYHSPFGCKFVIPLHSA
B3: Msl2, endogenous (enzyme, UniProt Q69ZF8 1-577)
chain: MNPVNATALYISASRLVLNYDPGDPKAFTEINRLLPYFRQSLSCCVCGHLLQDPIAPTNSTCQHYVCKTCKGKKMMMKPSCSWCKDYEQFEENKQLSILVNCYKKLCEYITQTTLARDIIEAVDCSSDILALLNDGSLFCEETEKPSDSSFTLCLTHSPLPSTSEPTADPQASLSPMSESTLSIAIGSSVINGLPTYNGLSIDRFGINIPSPEHPNTIDVCNTVDIKTEDLSDNLPPVCDTVATDLCSTGIDICSFSEDIKPGDSLLLSVEEVLRSLETVSNTEVCCPNLQPNLEATVSNGPFLQLSSQSLSHNVFMSTSPALHGLSCTAATPKVAKLNRKRSRSESDSEKVQPLPISTIIRGPTLGASAPVTVKRESKISLQPIATVPNGGTTPKISKTVLLSTKSMKKSHEHGSKKSHSKSKPGILKKDKAVKEKMPSHHFMPGSPTKTVYKKPQEKKGCKCGRATQNPSVLTCRGQRCPCYSNRKACLDCICRGCQNSYMANGEKKLEAFAVPEKALEQTRLTLGINVTSIAVRNASTSTSVINVTGSPVTTFLAASTHDDKSLDEAIDMRFDC

These binders were tested against T1, Flag-tagged QKI (Quaking) (assay: affinity purification with mass spectrometry; RAW264.7 cells transfected with Flag-QKI or control vector for 36 h, with or without bacterial infection for 4 h; QKI-IP complex analysed by iTRAQ LC-MS/MS).

binding, binds:
B1
B2
B3

No constants are given. Whether binding was seen depends on the method and setting. In cells and extracts the contact can be indirect. Here binding means that the protein was enriched with, or labelled near, the bait; the list need not be complete. Sequences can lack the tags named with a protein.
